Measured values: patent US20200209247A1, “METHODS FOR IDENTIFYING MYELOMA TUMOR-INITIATING CELLS AND TARGETED THERAPY” (UNIVERSITY OF IOWA RESEARCH FOUNDATION, priority 2017, published 2020)
Some results were stated once for a whole list of compounds, not compound by compound.

Tests used:
Type in all cases: cell-based, human
[1] = tested on: CD24+ and CD24− OCI-MY5 MM cells; test: Clonogenic (colony) formation assay, response to chemotherapeutic drugs, OCI-MY5; conditions: 2nd passage cells, treated with indicated drugs and doses
[2] = tested on: CD24+ and CD24− ARP1 MM cells; test: Clonogenic (colony) formation assay, response to chemotherapeutic drugs, ARP1; conditions: 2nd passage cells, treated 2 weeks; bortezomib 2 and 10 nM, carfilzomib 2.5 and 12.5 nM, melphalan 2.5 and 12.5 μM
[3] = tested on: RPMI-8226, RPMI-8226-R5 (a drug resistant cell line) cells; conditions: treated in vitro for 72 h; flow cytometry
Protocol: Drug resistance is a critical characteristic of TICs^43. To examine whether CD24^+ cells show higher resistance to chemotherapeutic drugs, the soft agar clonogenic formation assay was employed to examine the response to multiple drugs. […] The ARP1 cells from the 1st passage were collected and re-plated in methylcellulose dishes. CD24^+ and CD24^− ARP1 MM cells in the 2nd passage were treated with bortezomib (2 and 10 nM) or carfilzomib (2.5 and 12.5 nM) or melphalan (2.5 and 12.5 μM) for 2 weeks. CD24^+ ARP1 (FIGS. 5A & 5B) or OCI-MY5 (FIGS. 5C & 5D) MM cells were more pronounced resistant (>2.5-fold) than CD24^− ARP1 or OCI-MY5 MM cells. To directly confirm whether CD24^+ population are enriched upon chemotherapy, we treated RPMI-8226, RPMI-8226-R5 (a drug resistant cell line) cells with bortezmib or melphalan in vitro for 72 h (data not shown).

N[C@@H](Cc1ccc(N(CCCl)CCCl)cc1)C(=O)O [melphalan]
resistance of CD24+ versus CD24− OCI-MY5 MM cells [1]: > 2.5 fold | resistance of CD24+ versus CD24− ARP1 MM cells [2]: > 2.5 fold | increase of CD24+ population in chemoresistant residual cells [3]: 2˜100 folds
